Experimental data from patent publication US6846801B1, “Systemic administration of a therapeutic preparation” (AstraZeneca AB, priority 1993, dated 2005).

System: rats
Assay: Rat model: powder inhaled, blood glucose compared with insulin formulations without enhancer
Assay type: in vivo
Details: w/w of insulin/enhancer mixture
Protocol: Each of the compounds listed in Table III was tested for its ability to enhance uptake of insulin, and thus affect blood glucose levels, in a rat model. Various forms of insulin were employed: recombinant or semisynthetic human or bovine. Each formulation was prepared as above, drying and processing the insulin/enhancer or insulin/enhancer/lactose solution to produce an inhalable powder.
The powder was administered to rats by inhalation, and the blood glucose levels of the rats were subsequently monitored. These levels were compared to the corresponding values obtained from rats which had inhaled insulin formulations without enhancer.

Structure (SMILES): CCCCCCCCCC(=O)[O-].[Na+] [Sodium caprate]
- lowest effective concentration of sodium caprate relative to insulin: 15-25% and 20-25%

Where “and” joins values, the source holds several entries; their conditions need not be identical. Equal values may be shown once.
